Taken from: PubChem BioAssay AID1671195 (Yale University, 2021)

Purpose: 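Genes whose knockdown alters LDL uptake in liver cancer cells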 (primary screen)
Cells: human Huh7 hepatoma cells
Knock-down reagent: siRNA pool against human genes, 18 nM
Time to read-out: about 2 to 2.5 days of knockdown, then 8 h LDL uptake
Challenge: DiI-labelled LDL at 30 µg/ml for 8 h, in lipoprotein-deficient serum medium
Detection: 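Fluorescent LDL signal imaged in cells, scaled to the plate median, robust z-score for each replicate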
Reading the numbers: robust z-score: higher = more LDL uptake after knockdown
Hit rule: 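Active when two or more replicates show a robust z-score above 2 or below -2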
The deposit covers about 22,000 reagents; shown is a part drawn at random. Over the whole deposit, about 1,510 (6.9%) are marked active. 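Active includes knockdowns raising or lowering LDL uptake; positive z-scores mean more uptake, negative mean less.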 Entries without a mark were called inactive. The numbers tell different reagents against one gene apart.

no.	gene symbol	reagent	robust z-score, replicate 1	robust z-score, replicate 2	robust z-score, replicate 3
1	ASAP3 (ArfGAP with SH3 domain, ankyrin repeat and PH domain 3)	1	0.662	1.83	2.36
2	BORA (BORA aurora kinase A activator)	1	0.271	-0.149	-0.415
3	RPS26P40 (ribosomal protein S26 pseudogene 40)	1	-1.99 (active)	-2.11	-2.02
4	ATG10 (autophagy related 10)	1	0.515	-0.222	0.237
5	RAB5IF (RAB5 interacting factor)	1	-0.041	0.946	-0.644
6	USP28 (ubiquitin specific peptidase 28)	1	1.97	1.01	2.28
7	TLR8 (toll like receptor 8)	1	-0.533	-0.92	-0.811
8	LINC00547 (long independently transcribed non-coding RNA 547)	1	-0.859	-0.845	-0.805
9	SERPINE2 (serpin family E member 2)	1	-0.0423	0.501	0.975
10	LACTB2 (lactamase beta 2)	1	-1.54	-0.186	-0.193
11	TMEM268 (transmembrane protein 268)	1	1.76	1.29	1.45
12	OR2L2 (olfactory receptor family 2 subfamily L member 2)	1	1.48	1.66	-0.403
13	TMEM214 (transmembrane protein 214)	1	0.211	1	-0.251
14	SYNRG (synergin gamma)	1	-0.92	-1.7	-0.69
15	LOC145846 (retired record)	1	0.521	1.46	0.184
16	VPREB3 (V-set pre-B cell surrogate light chain 3)	1	-1.06	-1.05	-1.65
17	TAS2R39 (taste 2 receptor member 39)	1	0.129	-1.5	0.848
18	OR5AP2 (olfactory receptor family 5 subfamily AP member 2)	1	-1.27	-1.14	-1.2
19	ZNF557 (zinc finger protein 557)	1	0.263	0.15	-0.0702
20	TGFBR1 (transforming growth factor beta receptor 1)	1	0.733	0.794	0.76
21	FZR1 (fizzy and cell division cycle 20 related 1)	1	-0.296 (active)	-2.94	-2.18
22	GK (glycerol kinase)	1	0.835	0.696	1.35
23	FXR1 (FMR1 autosomal homolog 1)	1	1.96	-0.183	-0.0943
24	NHSL3 (NHS like 3)	1	-0.148	-1.12	-1.2
25	GFER (growth factor, augmenter of liver regeneration)	1	-0.944	-0.745	-1.07
26	FLJ40712 (retired record)	1	1.02	0.813	0.0556
27	LOC390736 (retired record)	1	-0.259	0.0413	0.17
28	LOC440344 (retired record)	1	-0.48	-0.435	-0.398
29	CAPS (calcyphosine)	1	-0.726	0.0537	-1
30	SSBP2 (single stranded DNA binding protein 2)	1	0.708	0.619	0.818
31	APOO (apolipoprotein O)	1	-0.895	-0.531	-1.2
32	INPP1 (inositol polyphosphate-1-phosphatase)	1	0.903	0.27	0.974
33	RPL23AP8 (ribosomal protein L23a pseudogene 8)	1	0.386	0.384	0.448
34	CYP46A1 (cytochrome P450 family 46 subfamily A member 1)	1	-0.539	-0.783	-1.07
35	LOC440389 (retired record)	1	0.685	0.845	0.519
36	CALCOCO1 (calcium binding and coiled-coil domain 1)	1	-0.306	-1.18	-0.924
37	EPB41 (erythrocyte membrane protein band 4.1)	1	-1.3	-0.562	-1.39
38	APH1B (aph-1B gamma-secretase subunit)	1	0.0973	-0.0552	-0.228
39	APH1B (aph-1B gamma-secretase subunit)	2	-0.699	0.528	-0.106
40	LOC389663 (retired record)	1	-0.254	-0.192	0.111
41	GUF1 (GTP binding elongation factor GUF1)	1	-0.316	-0.424	0.0329
42	STARD13 (StAR related lipid transfer domain containing 13)	1	-0.563	-0.44	-0.0237
43	ATG2A (autophagy related 2A)	1	-0.139	-0.854	0.688
44	DTWD2 (DTW motif tRNA-uridine aminocarboxypropyltransferase 2)	1	0.793	0.499	0.11
45	STRC (stereocilin)	1	-1.04	-0.956	-0.309
46	SYP (synaptophysin)	1	-0.793	-0.475	-0.593
